# “And” between values parts separate entries of the source, which are not always exact repeats. Equal values may be shown once. Some of the results follow. These are further read-outs of the screen, such as a control signal, another cell line or another target. No call is given for them. Most of these compounds were active or inconclusive in the main read-out, so they are no random draw. Words in brackets tell the shape of the fitted curve; partial curves, single points and poor fits give uncertain potencies.
# Test: qHTS Assay for Modulators of Lamin A Splicing
# Conditions: HeLa LMNA splicing GFP/RFP minigene ratio, 48 h
# Summary of the method: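 Read-out is the ratio of GFP to DsRed2 object intensity, acquired by 488 nm laser-scanning cytometry on HeLa lamin A-EGFP minigene reporter cells. Compound incubation 48 hrs at 37 °C in Opti-MEM with 2% FBS; DMSO 0.5% final.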
# [1] = measured here: GFP splicing reporter channel
# [2] = measured here: RFP viability control channel
Compound,AC50 [1],AC50 [2]
Cc1ccc(Sc2ncccc2COC(=O)Nc2ccccc2)cc1,"35.5 µM [rising, single point]","35.5 µM [rising, single point]"
Cc1sc2nc(COC(=O)c3ccc(N4CCCC(C)C4)c([N+](=O)[O-])c3)[nH]c(=O)c2c1C (stereo unspecified),"15.8 µM [rising, single point]",–
COc1ccc(C(=O)OC(C)C(=O)Nc2cc(C(F)(F)F)ccc2Cl)c(OC)c1OC (stereo unspecified),–,"31.6 µM [rising, single point]"
O=C(CCc1nnc(CCC2CCCCC2)o1)NCCc1cccnc1,"8.91 µM [falling, partial curve]","10 µM [falling, partial curve, poor fit]"
COc1ccccc1NC(=O)N1CCN(c2cccc(C(F)(F)F)c2)CC1,"17.8 µM [rising, single point]","17.8 µM [rising, single point]"
CCCCOc1ccc(C2=NNC(=O)CC2)cc1,"7.08 µM [falling, partial curve, poor fit]","5.62 µM [falling, full curve, poor fit]"
CCCCOP(=O)(OCCCC)C1(NS(=O)(=O)c2ccccc2)C=CC(=O)c2ccccc21 (stereo unspecified),"14.1 µM [rising, single point]","12.6 µM [rising, single point]"
CC(=O)NC(Cc1cccc(F)c1)C(=O)NC1CCN(c2nnnn2-c2ccccc2)CC1 (stereo unspecified),"0.0158 µM [falling, full curve, poor fit]",–
COc1ccccc1N1CCN(C(=O)c2ccc3nc(-c4ccco4)c(-c4ccco4)nc3c2)CC1,–,"22.4 µM [rising, single point]"
S=C(NCc1ccncc1)Nc1ccc(Cl)c(Cl)c1,"35.5 µM [rising, single point]","35.5 µM [rising, single point]"
Cc1ccc(NC(=O)C2CCN(S(=O)(=O)c3ccc4c(c3)CCCN4C(=O)C3CCC3)CC2)cc1,"35.5 µM [falling, single point]",–
CC(/C=C1\SC(=O)N(CCCC(=O)O)C1=O)=C\c1ccccc1,–,"35.5 µM [rising, single point]"
COc1ccc(NC(=O)Cc2c(F)cccc2Cl)c(OC)c1,"2 µM [rising, partial curve, poor fit]","6.31 µM [rising, partial curve, poor fit]"
COc1ccc(-n2cccc2/C=C/[N+](=O)[O-])cc1,"31.6 µM [rising, single point]","35.5 µM [rising, single point]"
C#CC(=O)N(c1cc(OC)ccc1OC)C(C(=O)NC1CCCC1)c1cccs1 (stereo unspecified),"35.5 µM [falling, single point]","35.5 µM [falling, single point]"
Cc1ccccc1-c1cncnc1N(C)Cc1ccco1,"10 µM [rising, partial curve]","35.5 µM [rising, single point]"
N#Cc1c(NC(=O)CCn2cnc3ccccc3c2=O)oc(-c2ccccc2)c1-c1ccccc1,"6.31 µM [rising, partial curve]","11.2 µM [rising, single point]"
CCN(CC)c1ccc(NC(=O)CN2CCN(S(=O)(=O)c3cc(Cl)ccc3OC)CC2)cc1,"22.4 µM [rising, single point] and 35.5 µM [falling, single point]","22.4 µM [rising, single point]"
O=C1c2ccccc2C(=O)N1c1cccc2cccnc12,"0.0794 µM [falling, partial curve, poor fit]",–
CC1=CN2C(=NC(=O)CC2(C)C(=O)N(CC(=O)NC2CCCC2)c2cc(C)cc(C)c2)C=C1 (stereo unspecified),–,"0.126 µM [falling, full curve]"
Cc1cc(C)nc(SCc2ccc(C(=O)N/N=C/c3ccccn3)cc2)n1,"7.94 µM [falling, partial curve, poor fit]",–
Cc1ccc(CNC(=O)NC23CC4CC(CC(C4)C2)C3)cc1,–,"31.6 µM [rising, single point]"
COc1ccc(OC)c(NC(=O)CCn2cccn2)c1,–,"0.00794 µM [falling, full curve, poor fit]"
CC(=O)NC1=NN(C(C)=O)C(C)(CC(=O)OC(C)(C)C)S1 (stereo unspecified),"0.224 µM [rising, partial curve, poor fit]","0.0447 µM [rising, full curve, poor fit]"
Cc1ccc(Cn2ccnc2SCC(=O)Nc2ccccc2C(F)(F)F)cc1,"0.0224 µM [rising, full curve, poor fit]",–
COc1ccc(OC)c(NC(=O)CN(c2ccc(OC)c(Cl)c2)S(C)(=O)=O)c1,"14.1 µM [rising, single point]",–

# Record cards (already shown).
# Cc1ccc(CNC(=O)NC23CC4CC(CC(C4)C2)C3)cc1 is listed as AC50 [2]: 31.6 µM [rising, single point]
# COc1ccc(OC)c(NC(=O)CCn2cccn2)c1 is listed as AC50 [2]: 0.00794 µM [falling, full curve, poor fit]
# CC(=O)NC1=NN(C(C)=O)C(C)(CC(=O)OC(C)(C)C)S1 (stereo unspecified) is listed as AC50 [1]: 0.224 µM [rising, partial curve, poor fit]; AC50 [2]: 0.0447 µM [rising, full curve, poor fit]
# O=C1c2ccccc2C(=O)N1c1cccc2cccnc12 is listed as AC50 [1]: 0.0794 µM [falling, partial curve, poor fit]

# (cont.)

Compound,AC50 [1],AC50 [2]
Cc1cc(C)n(-c2nc3ccccc3c(=O)n2OCC(=O)N(C)C)n1,–,"0.00447 µM [falling, full curve, poor fit]"
CCc1nn2c(N)c(/C=C3\C=Nc4ccccc43)c(=O)nc2s1,–,"20 µM [rising, partial curve, poor fit]"
Cc1ccccc1Cn1ccc(NC(=O)c2cnn3c(C(F)(F)F)cc(-c4ccco4)nc23)n1,–,"15.8 µM [rising, partial curve, poor fit]"
CCC(=O)OC1CSc2nc3ccccc3n2C1 (stereo unspecified),"31.6 µM [rising, single point]",–
COc1ccccc1CNC(=O)C1CCN(S(=O)(=O)c2ccc3[nH]c(=O)ccc3c2)CC1,"28.2 µM [falling, single point]",–
Cc1cc(C(=O)C(=O)N(C)C)c(C)n1-c1ccc(Cl)c(Cl)c1,"0.398 µM [rising, full curve, poor fit]","20 µM [rising, partial curve, poor fit]"
COC(=O)CCCC1=CC2=C(c3ccccc3)C(=O)C(C)(OC(=O)C3CCCC3)C(=O)C2=CN1Cc1ccc2c(c1)OCO2 (stereo unspecified),"0.126 µM [rising, partial curve, poor fit]","5.62 µM [rising, partial curve, poor fit]"
Cc1ccc2nc(-c3ccc(NC(=S)NC4CC(C)(C)NC(C)(C)C4)cc3)sc2c1,–,"17.8 µM [rising, single point]"
CCCN(CC(=O)Nc1ccc(Cl)cc1Cl)C(=O)/C=C/c1ccco1,–,"35.5 µM [falling, single point]"
Cn1c(CSCc2ccc(F)cc2)nnc1SCC(=O)Nc1nccs1,"0.562 µM [rising, full curve]","17.8 µM [rising, partial curve]"
CCc1cc(/C(Cc2ccccn2)=N\O)c(O)cc1O,"20 µM [falling, partial curve, poor fit]","5.62 µM [falling, partial curve, poor fit]"
CC(c1cccs1)N(C)Cc1nc(CCc2ccccc2)no1 (stereo unspecified),"0.316 µM [rising, partial curve, poor fit]","0.141 µM [rising, full curve, poor fit]"
CCc1cc(-c2[nH]ncc2-c2ccc3c(c2)OCO3)c(O)cc1O,–,"7.08 µM [rising, partial curve]"
Cc1ccc(C(=O)NCCSCc2ccc(Cl)cc2Cl)cc1[N+](=O)[O-],–,"28.2 µM [rising, partial curve]"
O=C(C1CCCN(S(=O)(=O)c2ccc(Cl)cc2)C1)N(Cc1cccs1)C1CC1 (stereo unspecified),"15.8 µM [rising, partial curve, poor fit]","17.8 µM [rising, single point]"
Cc1ccc2[nH]c(C)c(CCNC(=O)c3c(N)no[n+]3[O-])c2c1,"12.6 µM [rising, single point]","31.6 µM [rising, single point]"
CCOC(=O)C1=C(CSc2nc3ccccc3s2)NC(=O)NC1c1cc(C)ccc1C (stereo unspecified),"12.6 µM [falling, single point]","12.6 µM [falling, partial curve]"
O=C(Nc1nnc(-c2ccc3c(c2)CCCC3)o1)c1ccccc1,–,"3.98 µM [rising, full curve]"
CCOC(=O)c1ccc(NC(=O)COc2cccc3c(=O)n(C)ccc23)cc1,"35.5 µM [falling, partial curve, poor fit]",–
C#CCCOC(=O)N1C2=NC(C(=O)OC)=C(C(=O)OC)[C@@H]3N(Cc4ccccc4)c4ccccc4[C@]23C[C@H]1C(=O)OC,–,"3.55 µM [rising, single point]"
Cc1oc(-c2ccccc2)cc1C(=O)Nc1cccc2ccccc12,–,"35.5 µM [rising, single point]"
C=CCn1c(SCc2ccc(OC)cc2)nnc1-c1cccnc1,–,"11.2 µM [rising, partial curve, poor fit]"
O=C(COc1ccc(F)cc1)Nc1ccc(C(=O)OCc2cc(=O)n3nc(C4CC4)sc3n2)cc1,"0.00316 µM [falling, full curve, poor fit]","0.00316 µM [falling, full curve, poor fit]"
Cc1nc2ccccn2c1C(=O)CSc1ccc(Cl)cc1Cl,"5.62 µM [rising, single point]","5.62 µM [rising, single point]"
CCCCNC(=O)c1sc(=S)n2c1[nH]c(=O)c1ccccc12,–,"14.1 µM [rising, single point]"
COc1cc(Cl)c(C)cc1NC(=O)c1cccc(OC)c1OC,"8.91 µM [rising, partial curve, poor fit]","15.8 µM [rising, partial curve]"

# — PubChem BioAssay AID1487 (National Center for Advancing Translational Sciences (NCATS), 2009)
